Experimental data reported in article PMC10445734.
These are yes or no findings as the source states them, for the method shown. Binding seen in cells or lysates may run through a third protein. These calls come from enrichment with a bait or labelling near it, and not all partners need be listed.

Biological target: N-terminally HA-tagged Fra (Frazzled), pan-neurally overexpressed (Drosophila)
Experiment: affinity purification with mass spectrometry; lysates of Drosophila embryos pan-neurally (elav-Gal4) overexpressing N-terminally HA-tagged Fra; anti-HA immunoprecipitation overnight at 4°C, protein A and G agarose beads, TBSV with 1% NP40; eluted with glycine pH 2.0; label-free LC-MS/MS; control embryos with elav-Gal4 alone

Binder | binding
Prosbeta3 (protein, UniProt Q9XYN7 1-205) MSILAYNGGCVVAMRGKDCVAIATDHRFGIQAQTISTDFKKVFHIGPRMFLGLTGLQTDILTVRDRLMFRKNLYETRENREMCPKPFSAMMSSFLYEHRFGPYFIEPVVAGLDPKTMEPFICNMDLIGCPNAPDDFVVAGTCAEQLYGMCETLWKPDLEPDQLFEVIAQSIVNAFDRDAMSGWGATVYIIEKDKITERTLKTRMD | binds
Prosbeta5 (protein, UniProt Q7K148 1-282) MALAEICKISNAPYMRPNAWSSADVEEEQKGLMCNLANPYTLAAPPFENPLHNLNQIQANGDKTGVKINFDHGTTTLGFKFKGGVLLAVDSRATGGSYIGSQSMKKIVEINQFMLGTLAGGAADCVYWDRVLSKECRLHELRNKERISVAAASKIMANIAHEYKGMGLSMGMMLAGYDKRGPGLYYVDSEGSRTPGNLFSVGSGSLYAYGVLDSGYHWDLEDKEAQELGRRAIYHATFRDAYSGGIIRVYHIKEDGWVNISNTDCMELHYMYQEQLKQQAAK | binds
Prosbeta7 (protein, UniProt Q9VNA5 1-268) MLNNYNSLAQPMWQNGPAPGEFYNFTGGQTPVQQLPRELTTMGPYGTKHSTASSTTGTSVLGIRYDSGVMLAADTLVSYGSMARYQNIERVFKVNKNILLGGSGDFADIQSIKRNIDQKMIEDQCCDDNIEMKPKSLASWMTRVLYNRRSRMNPLYIDVVVGGVDNEGTPYLANVDLRGRSYEDYVVATGFARHLAVPLVREKKPKDRDFTAVEASELIRTCMEVLYYRDTRNISQYTVGVCSVNGCGVEGPFQVNENWTFAETIKGY | binds
Cand1 (protein, UniProt Q9VKY2 1-1248) MASHQYHQIANLLEKMTSTDKDFRFMATNDLMTELQKDSIILDDESEKKVVRMVLKLLEDKNGEVQNLAVKCLGPLVNKVKEIQVETIVDSLCANMMSNTEQLRDISSIGLKTVIAELPQSSNSLAPNVCQRITGKLSTAIEKEDVSVKLESLDILADLLSRFGEFLVPFHSTILKALMPQLASSRQAVRKRTIVALSFLLIQANSNAYNGVIDHLLDGLENPPNPAAIRTYIQCLASICRQAGHRLCNHIDRSMLLLSQYSQRDDDELREFCLQACEAFVMRCPDAINPHIPMILELCLNYITYDPNYNYETDDGDTGNAMDTEDDEYVDSEEYSDDDDMSWKVRRAAAKCLEVLISTRQELVEDFYRSLSPALIARFKEREENVKSDIFHAYVALLKNTRLTDDVANDHDSMDQVSGPTSLLIEQLPLIVKAIQPLMREKSMKTRQDCFLLLRELLNSLPGALGPYLDSIVPGISYSLNDKSSTSNMKIESLGFLYSLLQGHPPHVFHPHIPLLVPLVVTSVFDPFYKIATEALLVLQQLVKVIRPLEPNAAKSDFDAPSFVGQVYSCTLQKLKVTDVDQEVKERAIACMGQIIANMGDMLQNELAVCLPIFMERLKNEVTRLSSVKALTLIAASSLRIDLTPILHDVLPALGTFLRKNHRALKLHSLDLINKIVINYSSNFEANLLQTAIVEIPPLISDSDLHVAQYSLTLLSTVARRQPQALVGIHEQFLRSVLILVRSPLLQGSALNCTLELFQALVQTQLSGLDYHSLVSKLMAPVLGGNGDVKSRATAGAPSEVVQLHKQAYHSSAKCIAALTQQCPQVATPLATKLITDLQKRNDTEIIFCLLTIGEIGRHFDLSSIQVLPQTIIECFGATSEDVKAAASHALGAVSVGSLQTYLPLILHEIEVQPKRQYLLLHSLKEVISSLSVSPSGLAQLLPSVPSIWDQLFKHCECSEEGSRNVVAECLGKLVLVNPDELLPQLQQALRSESATMRTVVVSSVKFTISDQPQPIDVLLKQNIGEFLFALRDPEPQVRRVALVAFNSAVHNKPSLVRDLLPTLLPWLYSETKVKSELIREVEMGPFKHTVDDGLDIRKAAFECMYTLLEQGLDRVDVMQFLDHVQAGLCDHYDIKMLTYLMTARLAILCPDKVLLRLDQFIQQLRDTCTHKVKANSVKQEYEKQDELKRSALRAVSALSQIPKANKNQQLVDFLKSIKETPELNKIFEYIQKDSITGSSDIIVMDQS | binds
UbcE2M (enzyme, UniProt Q9VSF3 1-181) MIKLFTLKQQKKDGEQKGSQQKKASAAQLRIQKDINELNLPNTCATDFPDPNDLLNFKLIISPDEGFYRDGRFVFNFRVGSNYPHEPPKVKCATQVYHPNIDLDGNVCLNILREDWNPVLNINSIVYGLQFLFLEPNPEDPLNKEAADVLQTNRRQFENNVKKAMRGGCVGETYFECCLLK | binds
Flotillin 2 (Flo2), endogenous (protein, UniProt O61492 1-438) MGNIHTTGPNEALIVSGGCCGSTKKRTIVGGWAWAWWLVTDVQRLSLNVMTLNPMCENVETSQGVPLTVTGVAQCKIMKSSSYKQTDYHNDEADELLGTASEQFLGKSVKEIKQTILQTLEGHLRAILGTLTVEEVYKDRDQFAALVREVAAPDVGRMGIEILSFTIKDVYDDVQYLASLGKAQTAVVKRDADAGVAEANRDAGIREAECEKSAMDVKYSTDTKIEDNTRMYKLQKANFDQEINTAKAESQLAYELQAAKIRQRIRNEEIQIEVVERRKQIEIESQEVQRKDRELTGTVKLPAEAEAFRLQTLAQAKQCQTIEGARAEAERIRKIGSAEAHAIELVGKAEAERMRMKAHVYKQYGDAAIMNIVLESLPKIAAEVAAPLAKTDEIVLIGGNDNITNDVTRLVAQLPPSINALTGVDLSKVLSKIPGAKA | binds
Toll-7, endogenous (receptor, UniProt Q7KIN0 17-1446) VESALAPKESESSASAMLGAGTGAAATVSLSGDYSSLLSNVPAASPVPANPSQPSGPANQCSWSYNGTSSVHCALRLIERQPGLDLQGADGSSQLTIQCSELYLFESTLPVAVFARLQTLEALRLDSCKLLQLPNNAFEGLATLKSLRLSTHNSEWGPTRTLELFPDSLGGLKQLTDLDLGDNNLRQLPSGFLCPVGNLQVLNLTRNRIRTAEQMGFADMNCGAGSGSAGSELQVLDASHNELRSISESWGISRLRRLQHLNLAYNNLSELSGEALAGLASLRIVNLSNNHLETLPEGLFAGSKELREIHLQQNELYELPKGLFHRLEQLLVVDLSGNQLTSNHVDNTTFAGLIRLIVLNLAHNALTRIDYRTFKELYFLQILNLRNNSIGHIEDNAFLPLYNLHTLNLAENRLHTLDDKLFNGLYVLSKLTLNNNLISVVEPAVFKNCSDLKELDLSSNQLNEVPRALQDLAMLRTLDLGENQIRTFDNQSFKNLHQLTGLRLIDNQIGNITVGMFQDLPRLSVLNLAKNRIQSIERGSFDKNFELEAIRLDRNFLADINGVFATLVSLLWLNLSENHLVWFDYAFIPSNLKWLDIHGNYIEALGNYYKLQEEIRVKTLDASHNRITEIGPMSIPNTIELLFINNNLIGNVQPNAFVDKANLARVDLYANQLSKLQLQQLRVAPVVAPKPLPEFYLGGNPFECDCTMDWLQRINNLTTRQHPRVMDMANIECVMPHARGAAVRPLSGLRPQDFLCRYESHCFALCHCCDFDACDCEMTCPSNCTCYHDQIWSTNVVDCGGQQTTELPRRVPMDSSVVYLDGNNFPVLKNHAFIGRKNLRALYVNGSQVAAIQNRTFASLASLQLLHLADNKLRTLHGYEFEQLSALRELYLQNNQLTTIENATLAPLAALELIRIDGNRLVTLPIWQMHATHFGTRLKSISLGRNQWSCRCQFLQALTSYVADNALIVQDAQDIYCMAASSGTGSAALEDSSSNSGSLEKRELDFNATGAACTDYYSGGSMLQHGIPESYIPLLAAALALLFLLVVIAMVFAFRESLRIWLFAHYGVRVFGPRCEESEKLYDAVLLHSAKDSEFVCQHLAAQLETGRPPLRVCLQHRDLAHDATHYQLLEATRVSRRVVILLTRNFLQTEWARCELRRSVHDALRGRPQKLVIIEEPEVAFEAESDIELLPYLKTSAVHRIRRSDRHFWEKLRYALPVDYPTFRGNNYTLELDHHNHERVKQPASPGLLYRQAPPPAYCGPADAVGIGAVPQVVPVNASVPAEQNYSTATTATPSPRPQRRGEQPGSGSGGNHHLHAQYYQHHGMRPPSEHIYSSIDSDYSTLDNEQHMLMMPGAPGGLAMEAAQRAQTWRPKREQLHLQQAQAGTLGSKASQAAHQQQQQQQQQQQQQPNPTAVSGQQQGPHVQAYLV | binds
Falafel (protein, UniProt Q9VFS5 1-980) MTTDTRRRVKLYALNAERQWDDRGTGHVSSTYVERLKGISLLVRAESDGSLLLESKIQPDTAYQKQQDTLIVWSEGDNFDLALSFQEKAGCDEIWEKICQVQGKDPSVEITQDIVEESEDERFEDMSDTAPPIELPPCELSRLEDISETIQSCLSTPLRKEKLSMALESESYIKKLLNLFHVCEDLDNTEGLHHLFEIFKNIFLLNKNALFEIMFADDTIFDVVGCLEYDPSVSQPKKHRQYLKQLAKFREAVPIKNLDLLAKIHQTFRVQYIQDIILPTPSVFVEDNMLNTLSSFIFFNKVEIVTMIQDDERYLLDVFAVLTDPTTGDAKRRDTVLFLKEFCNYAQNLQPQGKDSFYKTLTCLGILQALELTLVMNDKKTKSASIDILTAIVEFSPLVVRNYTLNQANRPEVERMLLNIAIEQMLNDSEPELGIAVQLMGIVKILLEPENMLTEKGDFLNFFYKYSVQTLVAPVILNTIGDRPQNEDYQTAQLLGIVLDILSFCVEHHSYHIKNFLLQKDLLKRILVLMKSTHTFLVLGALRLLRKIIALKDEFYNRHIVKCNLFAPVVDAFIRNNGRYNLLESAILELFEFIKLEDIRTLCVYFVENFSKIFDEIEYVQTFKYLKNRYDQYQDRLKDRDKMENRTDGGLPIIRSGGRFRRDQRQMEEEEEMWFNEEDDFTEEIDTYNNVMKSVSEKNGPQTQNQQKSSPPHSTSPHSGLLGSLSTTASSTATSATSGAPVASGSSSPEAISADEQTQAAVHLAAAALQHHQQQQQQQQQNPFQQQTQPEIAELQQQLSSVEAPQSQELELSQSAAASASPTSSSSSLEASTSSSSASSSSSSSSSSSPPGSSAAASLCDSATVAAVAASQFLSTIATAMAASVTAAAATNSSPSISPAPAVSSPDIENADAQLPPSDDASSPASGEQDANSTEGTSSEADKTTAKKGLVDYESDSGEDDYEEDEYSEGPQAQKRARQA | binds
CSN7 (protein, UniProt Q9V4S8 1-278) MTQDMLLGNEEPSKSKETFLEKFCVLAKSSTGAALLDVIRQALEAPNVFVFGELLAEPSVLQLKDGPDSKHFETLNLFAYGTYKEYRAQPEKFIELTPAMQKKLQHLTIVSLAIKAKSIPYALLLSELEIDNVRHLEDIIIEAIYADIIHGKLFQNTRILEVDYAQGRDIPPGYTGQIVETLQAWVNSCDSVSNCIEMQIKYANAEKSKRLINKERVEQDLINLKKVLKSQTSDSDESMQIDTHGPGTSGGLGQSELRKKPSKLRNPRSAAVGLKFSK | binds
CSN3 (protein, UniProt Q8SYG2 1-445) MGSALENYVNQVRTLSASGSYRELAEELPESLSLLARNWSILDNVLETLDMQQHSLGVLYVLLAKLHSASTANPEPVQLIQLMRDFVQRNNNEQLRYAVCAFYETCHLFTEFVVQKNLSILGIRIISRAIDQIRQLETQLTPIHADLCLLSLKAKNFSVVLPYLDADITDISTVAAECKTQQQQQSQHADANNDAKYFLLYFYYGGMIYTAVKNYERALYFFEVCITTPAMAMSHIMLEAYKKFLMVSLIVEGKIAYIPKNTQVIGRFMKPMANHYHDLVNVYANSSSEELRIIILKYSEAFTRDNNMGLAKQVATSLYKRNIQRLTKTFLTLSLSDVASRVQLASAVEAERYILNMIKSGEIYASINQKDGMVLFKDDPEKYNSPEMFLNVQNNITHVLDQVRQINKMEEEIILNPMYVKKALGSQDDDLTSQHPKTFSGDPTD | binds
